Data on 22 targets can be found in the supplement of paper PMC12819154, “High-throughput peptide-centric local stability assay extends protein–ligand identification to membrane proteins, tissues and bacteria” (Nature Structural & Molecular Biology, 2025).

By UniProt entry, the sequences of proteins in these tests, tags left out. Where a name states a change or a piece, a line headed by the entry shows the natural chain unless it says otherwise.
UniProt Q9D772: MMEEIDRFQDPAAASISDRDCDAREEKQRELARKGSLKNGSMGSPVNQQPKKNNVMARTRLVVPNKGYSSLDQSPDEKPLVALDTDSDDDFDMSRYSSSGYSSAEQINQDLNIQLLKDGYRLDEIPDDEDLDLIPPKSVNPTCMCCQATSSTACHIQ
UniProt Q9D384: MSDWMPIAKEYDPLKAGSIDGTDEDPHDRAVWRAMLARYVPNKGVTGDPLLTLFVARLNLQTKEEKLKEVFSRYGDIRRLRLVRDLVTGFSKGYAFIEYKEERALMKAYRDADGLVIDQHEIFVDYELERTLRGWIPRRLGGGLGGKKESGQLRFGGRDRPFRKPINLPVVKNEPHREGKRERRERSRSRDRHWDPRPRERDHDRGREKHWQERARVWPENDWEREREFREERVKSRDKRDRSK
UniProt Q9D3N8: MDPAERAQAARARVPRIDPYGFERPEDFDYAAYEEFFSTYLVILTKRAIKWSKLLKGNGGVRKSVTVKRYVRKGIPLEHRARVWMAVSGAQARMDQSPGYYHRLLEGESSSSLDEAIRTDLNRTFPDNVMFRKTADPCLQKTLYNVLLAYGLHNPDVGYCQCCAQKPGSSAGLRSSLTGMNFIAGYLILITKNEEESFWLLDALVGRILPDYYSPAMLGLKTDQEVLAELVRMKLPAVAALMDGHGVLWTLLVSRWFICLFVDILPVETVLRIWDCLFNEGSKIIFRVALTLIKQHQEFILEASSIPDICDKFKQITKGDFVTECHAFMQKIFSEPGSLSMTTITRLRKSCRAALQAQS
UniProt Q9D786: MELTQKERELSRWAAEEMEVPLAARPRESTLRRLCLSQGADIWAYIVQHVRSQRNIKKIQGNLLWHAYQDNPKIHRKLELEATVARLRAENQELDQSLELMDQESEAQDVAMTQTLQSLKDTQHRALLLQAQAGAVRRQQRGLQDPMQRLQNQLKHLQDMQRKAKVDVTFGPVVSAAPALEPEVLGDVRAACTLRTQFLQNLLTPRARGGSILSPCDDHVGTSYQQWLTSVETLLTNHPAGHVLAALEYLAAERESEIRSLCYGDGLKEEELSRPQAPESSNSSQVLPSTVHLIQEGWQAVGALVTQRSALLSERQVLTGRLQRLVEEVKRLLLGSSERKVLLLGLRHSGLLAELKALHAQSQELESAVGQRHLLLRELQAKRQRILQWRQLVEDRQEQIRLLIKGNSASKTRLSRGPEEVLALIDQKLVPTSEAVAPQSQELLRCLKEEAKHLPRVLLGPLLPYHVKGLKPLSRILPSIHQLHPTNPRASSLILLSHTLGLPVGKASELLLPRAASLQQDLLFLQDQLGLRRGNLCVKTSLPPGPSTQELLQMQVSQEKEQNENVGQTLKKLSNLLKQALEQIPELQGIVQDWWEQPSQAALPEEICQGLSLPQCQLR
UniProt Q9D504: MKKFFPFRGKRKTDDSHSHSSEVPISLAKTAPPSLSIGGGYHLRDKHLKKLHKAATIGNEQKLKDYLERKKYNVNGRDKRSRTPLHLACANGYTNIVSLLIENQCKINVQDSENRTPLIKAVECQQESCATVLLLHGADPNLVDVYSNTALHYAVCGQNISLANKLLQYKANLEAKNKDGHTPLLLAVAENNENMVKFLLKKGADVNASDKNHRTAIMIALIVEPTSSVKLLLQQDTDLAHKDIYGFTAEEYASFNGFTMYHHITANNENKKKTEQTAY
UniProt Q9D8L5: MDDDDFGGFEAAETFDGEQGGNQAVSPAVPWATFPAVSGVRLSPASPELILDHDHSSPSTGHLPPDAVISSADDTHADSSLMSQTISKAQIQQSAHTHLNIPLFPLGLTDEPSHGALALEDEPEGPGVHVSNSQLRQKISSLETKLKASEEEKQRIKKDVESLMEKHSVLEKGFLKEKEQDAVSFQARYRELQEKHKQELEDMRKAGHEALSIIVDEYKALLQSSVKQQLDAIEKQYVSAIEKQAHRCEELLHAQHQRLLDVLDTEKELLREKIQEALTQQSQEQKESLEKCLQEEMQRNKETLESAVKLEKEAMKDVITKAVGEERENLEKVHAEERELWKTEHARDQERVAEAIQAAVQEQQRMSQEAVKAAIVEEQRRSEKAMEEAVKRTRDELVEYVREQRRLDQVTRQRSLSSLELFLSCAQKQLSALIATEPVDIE
UniProt Q9D844: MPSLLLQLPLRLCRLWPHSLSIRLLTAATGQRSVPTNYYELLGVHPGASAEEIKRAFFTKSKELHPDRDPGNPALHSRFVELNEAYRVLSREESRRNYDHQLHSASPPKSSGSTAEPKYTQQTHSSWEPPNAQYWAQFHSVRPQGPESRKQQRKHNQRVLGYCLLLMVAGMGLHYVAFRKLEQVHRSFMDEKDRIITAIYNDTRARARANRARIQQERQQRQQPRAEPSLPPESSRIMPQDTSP
UniProt Q9DA08: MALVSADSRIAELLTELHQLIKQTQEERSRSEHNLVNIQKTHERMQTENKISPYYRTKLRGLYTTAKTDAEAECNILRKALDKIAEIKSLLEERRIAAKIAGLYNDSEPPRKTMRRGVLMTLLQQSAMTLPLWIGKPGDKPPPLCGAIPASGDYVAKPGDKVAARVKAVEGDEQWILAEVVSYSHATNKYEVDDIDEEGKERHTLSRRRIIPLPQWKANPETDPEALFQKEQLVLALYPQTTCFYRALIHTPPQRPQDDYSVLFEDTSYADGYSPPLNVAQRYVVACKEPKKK
UniProt Q9D8U0: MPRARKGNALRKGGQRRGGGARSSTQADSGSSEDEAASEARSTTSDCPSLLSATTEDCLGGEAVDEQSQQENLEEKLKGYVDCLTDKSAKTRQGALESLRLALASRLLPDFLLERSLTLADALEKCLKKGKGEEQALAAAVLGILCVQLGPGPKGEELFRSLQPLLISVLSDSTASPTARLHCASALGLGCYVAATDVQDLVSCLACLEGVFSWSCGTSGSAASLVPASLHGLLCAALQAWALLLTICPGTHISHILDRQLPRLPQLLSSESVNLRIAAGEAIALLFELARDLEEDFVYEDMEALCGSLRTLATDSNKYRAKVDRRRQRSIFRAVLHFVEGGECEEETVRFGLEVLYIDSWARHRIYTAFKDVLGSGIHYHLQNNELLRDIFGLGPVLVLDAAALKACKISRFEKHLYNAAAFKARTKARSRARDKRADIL
UniProt Q9D6K7: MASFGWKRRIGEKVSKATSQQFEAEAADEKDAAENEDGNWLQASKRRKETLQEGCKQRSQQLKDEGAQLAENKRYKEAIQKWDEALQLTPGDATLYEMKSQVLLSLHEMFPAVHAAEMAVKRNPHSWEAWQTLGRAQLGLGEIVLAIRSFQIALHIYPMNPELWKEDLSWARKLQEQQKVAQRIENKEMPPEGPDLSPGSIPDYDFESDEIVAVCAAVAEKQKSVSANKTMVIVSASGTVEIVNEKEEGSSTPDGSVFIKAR
UniProt Q9D975: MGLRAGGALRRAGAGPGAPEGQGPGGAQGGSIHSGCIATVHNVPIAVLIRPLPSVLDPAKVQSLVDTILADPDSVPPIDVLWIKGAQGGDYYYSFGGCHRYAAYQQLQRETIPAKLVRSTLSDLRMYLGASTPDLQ
UniProt Q9D7P6: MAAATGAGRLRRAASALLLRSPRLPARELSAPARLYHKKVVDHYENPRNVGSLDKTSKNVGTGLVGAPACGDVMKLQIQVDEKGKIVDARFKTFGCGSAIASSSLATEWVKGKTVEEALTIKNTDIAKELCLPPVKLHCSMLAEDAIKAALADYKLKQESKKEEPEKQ
UniProt Q9D168, whole entry: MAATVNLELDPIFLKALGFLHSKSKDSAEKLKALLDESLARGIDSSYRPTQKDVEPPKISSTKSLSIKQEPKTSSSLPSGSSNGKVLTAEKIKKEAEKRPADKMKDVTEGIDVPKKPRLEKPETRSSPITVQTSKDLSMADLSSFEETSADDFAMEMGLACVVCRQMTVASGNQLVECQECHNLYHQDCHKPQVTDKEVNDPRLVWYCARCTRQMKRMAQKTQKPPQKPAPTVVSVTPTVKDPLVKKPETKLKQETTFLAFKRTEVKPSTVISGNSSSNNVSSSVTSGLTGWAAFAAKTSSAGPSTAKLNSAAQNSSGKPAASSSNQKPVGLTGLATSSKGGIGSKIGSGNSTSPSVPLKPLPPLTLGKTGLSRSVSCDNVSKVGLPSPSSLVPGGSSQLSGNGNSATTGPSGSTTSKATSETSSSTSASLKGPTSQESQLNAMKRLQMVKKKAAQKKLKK
UniProt Q9D753, whole entry: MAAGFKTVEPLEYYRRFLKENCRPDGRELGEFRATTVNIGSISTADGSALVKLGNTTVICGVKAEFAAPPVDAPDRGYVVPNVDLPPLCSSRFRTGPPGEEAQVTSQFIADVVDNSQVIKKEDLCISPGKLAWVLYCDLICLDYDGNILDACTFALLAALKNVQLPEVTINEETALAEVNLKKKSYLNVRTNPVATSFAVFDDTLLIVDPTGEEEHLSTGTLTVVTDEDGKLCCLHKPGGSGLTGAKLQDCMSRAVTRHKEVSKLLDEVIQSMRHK
UniProt Q9D379: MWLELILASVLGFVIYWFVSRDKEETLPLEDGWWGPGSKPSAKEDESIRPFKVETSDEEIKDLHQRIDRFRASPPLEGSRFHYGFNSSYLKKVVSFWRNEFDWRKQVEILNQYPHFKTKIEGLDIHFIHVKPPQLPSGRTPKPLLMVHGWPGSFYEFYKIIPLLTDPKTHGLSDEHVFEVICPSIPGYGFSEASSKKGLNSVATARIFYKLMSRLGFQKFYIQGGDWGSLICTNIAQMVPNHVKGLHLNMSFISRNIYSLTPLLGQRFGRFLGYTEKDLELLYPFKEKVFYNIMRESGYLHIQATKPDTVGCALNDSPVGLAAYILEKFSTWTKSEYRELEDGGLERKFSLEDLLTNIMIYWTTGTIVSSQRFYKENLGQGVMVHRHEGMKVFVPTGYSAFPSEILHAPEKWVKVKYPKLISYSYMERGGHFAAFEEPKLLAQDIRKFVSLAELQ
UniProt Q9D938: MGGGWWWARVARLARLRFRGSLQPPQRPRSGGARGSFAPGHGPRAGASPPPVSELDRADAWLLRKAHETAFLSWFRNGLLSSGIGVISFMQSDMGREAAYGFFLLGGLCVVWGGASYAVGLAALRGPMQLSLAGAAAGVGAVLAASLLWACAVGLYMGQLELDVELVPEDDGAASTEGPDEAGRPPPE
UniProt Q9D7E4: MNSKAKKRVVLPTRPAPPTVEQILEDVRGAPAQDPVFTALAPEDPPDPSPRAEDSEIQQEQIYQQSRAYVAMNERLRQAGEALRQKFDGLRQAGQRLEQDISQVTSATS
UniProt Q9D684: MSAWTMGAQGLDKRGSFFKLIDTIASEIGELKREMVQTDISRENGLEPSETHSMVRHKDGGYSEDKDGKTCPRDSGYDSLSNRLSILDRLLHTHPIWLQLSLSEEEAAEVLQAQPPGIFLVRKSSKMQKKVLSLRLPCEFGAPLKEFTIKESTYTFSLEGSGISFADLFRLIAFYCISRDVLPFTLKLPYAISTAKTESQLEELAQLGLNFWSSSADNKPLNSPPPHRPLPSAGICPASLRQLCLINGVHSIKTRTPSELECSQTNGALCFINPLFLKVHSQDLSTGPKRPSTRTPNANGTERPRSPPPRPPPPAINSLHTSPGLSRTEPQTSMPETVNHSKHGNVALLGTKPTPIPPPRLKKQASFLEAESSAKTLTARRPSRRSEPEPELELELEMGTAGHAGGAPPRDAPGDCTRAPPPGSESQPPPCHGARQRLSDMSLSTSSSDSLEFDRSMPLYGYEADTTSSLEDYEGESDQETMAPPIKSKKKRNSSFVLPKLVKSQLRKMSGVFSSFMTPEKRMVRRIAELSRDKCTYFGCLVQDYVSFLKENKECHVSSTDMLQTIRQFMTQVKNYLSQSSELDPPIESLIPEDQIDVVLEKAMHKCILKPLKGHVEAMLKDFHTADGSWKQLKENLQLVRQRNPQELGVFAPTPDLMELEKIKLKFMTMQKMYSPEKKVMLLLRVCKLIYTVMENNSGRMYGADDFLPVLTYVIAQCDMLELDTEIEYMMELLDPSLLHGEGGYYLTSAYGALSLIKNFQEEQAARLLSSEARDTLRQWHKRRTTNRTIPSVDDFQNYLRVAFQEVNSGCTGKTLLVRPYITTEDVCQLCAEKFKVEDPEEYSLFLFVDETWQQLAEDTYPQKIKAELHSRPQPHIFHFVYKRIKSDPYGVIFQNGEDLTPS
UniProt Q9D8X2: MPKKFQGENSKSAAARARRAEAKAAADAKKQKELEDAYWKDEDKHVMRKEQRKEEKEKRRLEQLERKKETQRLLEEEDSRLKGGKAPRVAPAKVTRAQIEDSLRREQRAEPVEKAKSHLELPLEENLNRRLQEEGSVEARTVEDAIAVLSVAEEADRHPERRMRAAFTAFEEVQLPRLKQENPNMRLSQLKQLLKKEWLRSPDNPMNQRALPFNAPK

Compound in this assay: CN[C@@H]1C[C@H]2O[C@@](C)([C@@H]1OC)n1c3ccccc3c3c4c(c5c6ccccc6n2c5c31)C(=O)NC4 [staurosporine]
Description: log2 fold change of tryptic peptide abundance, ligand vs vehicle (limited proteolysis) (log2 ratio); higher = more trypsin-susceptible (destabilized). The settings on record: ligand concentration: 20 uM; sample: mouse liver crude lysate; replicate design: treated separately.

The other results are listed elsewhere or left out. Most values lie at the level of the controls, where differences are scatter.

In the case of “UniProt Q9D772 (peptide sequence: NGSMGSPVNQQPK, peptide start residue: 39)”, the log2 fold change is -0.106. Turning to “UniProt Q9D384 (peptide sequence: HWDPRPR, peptide start residue: 193)”, the log2 fold change is -0.112. Regarding “UniProt Q9D3N8 (peptide sequence: TDQEVLAELVR, peptide start residue: 222)”, the log2 fold change was determined as 0.313. As for “UniProt Q9D786 (peptide sequence: ASELLLPR, peptide start residue: 507)”, the log2 fold change came to 0.115.

“UniProt Q9D504 (peptide sequence: KFFPFRGK, peptide start residue: 3)”: the log2 fold change worked out at 0.214. Take “UniProt Q9D8L5 (peptide sequence: HKQELEDMRK, peptide start residue: 196)”: the log2 fold change turned out to be 0.546. On to “UniProt Q9D1H8 (peptide sequence: GAHLTTQEMLSALASHIR, peptide start residue: 78)”, for which the log2 fold change came out at 0.104. With “UniProt Q9D844 (peptide sequence: SVPTNYYELLGVHPGASAEEIKR, peptide start residue: 33)”, the log2 fold change was -0.489. On to “UniProt Q9DA08 (peptide sequence: IAELLTELHQLIK, peptide start residue: 10)”, for which the log2 fold change was -0.213. Take “UniProt Q9D8U0 (peptide sequence: SLTLADALEK, peptide start residue: 116)”: the log2 fold change was 0.15.

With “UniProt Q9D6K7 (peptide sequence: KETLQEGCKQR, peptide start residue: 48)”, the log2 fold change was -0.737.

Regarding “UniProt Q9D385 (peptide sequence: SSSTPASQNNLR, peptide start residue: 151)”, the log2 fold change came to 0.489. For the target “UniProt Q9D975 (peptide sequence: GAQGGDYYYSFGGCHR, peptide start residue: 85)”, the log2 fold change was -0.0691. Turning to “UniProt Q9D7P6 (peptide sequence: VVDHYENPR, peptide start residue: 40)”, the log2 fold change amounted to 0.0995. For “UniProt Q9D1F4 (peptide sequence: SLPVSVPVWAFK, peptide start residue: 184)”, the log2 fold change was -0.213. Regarding “UniProt Q9D168 (peptide sequence: SSPITVQTSK, peptide start residue: 126)”, the log2 fold change was 0.193.

In the case of “UniProt Q9D753 (peptide sequence: TVEPLEYYR, peptide start residue: 7)”, the log2 fold change worked out at 0.0586.

Take “UniProt Q9D379 (peptide sequence: KFVSLAELQ, peptide start residue: 447)”: the log2 fold change is -0.504. Next, “UniProt Q9D938 (peptide sequence: GGGWWWAR, peptide start residue: 2)”: 0.137. On to “UniProt Q9D7E4 (peptide sequence: AYVAMNER, peptide start residue: 68)”, for which the log2 fold change was -0.0806. Next, “UniProt Q9D684 (peptide sequence: VHSQDLSTGPK, peptide start residue: 279)”: -0.345; “UniProt Q9D8X2 (peptide sequence: ELEDAYWKDEDK, peptide start residue: 33)”: -0.234.
